Experimental data: publication PMC9630114

Amino acid sequences for entries named in this document (tags omitted). A change or cut given only in a name is not applied to a line headed by its entry. Residues count along the entry.
UniProt Q9UM00: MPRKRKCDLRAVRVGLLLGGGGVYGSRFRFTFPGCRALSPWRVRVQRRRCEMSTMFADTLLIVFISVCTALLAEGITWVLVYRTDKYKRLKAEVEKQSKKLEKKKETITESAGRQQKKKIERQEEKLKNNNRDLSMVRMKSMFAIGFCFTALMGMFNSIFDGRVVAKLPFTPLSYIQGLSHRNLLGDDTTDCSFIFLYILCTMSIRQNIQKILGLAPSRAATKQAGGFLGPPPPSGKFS
UniProt Q969V3, residues 43-563: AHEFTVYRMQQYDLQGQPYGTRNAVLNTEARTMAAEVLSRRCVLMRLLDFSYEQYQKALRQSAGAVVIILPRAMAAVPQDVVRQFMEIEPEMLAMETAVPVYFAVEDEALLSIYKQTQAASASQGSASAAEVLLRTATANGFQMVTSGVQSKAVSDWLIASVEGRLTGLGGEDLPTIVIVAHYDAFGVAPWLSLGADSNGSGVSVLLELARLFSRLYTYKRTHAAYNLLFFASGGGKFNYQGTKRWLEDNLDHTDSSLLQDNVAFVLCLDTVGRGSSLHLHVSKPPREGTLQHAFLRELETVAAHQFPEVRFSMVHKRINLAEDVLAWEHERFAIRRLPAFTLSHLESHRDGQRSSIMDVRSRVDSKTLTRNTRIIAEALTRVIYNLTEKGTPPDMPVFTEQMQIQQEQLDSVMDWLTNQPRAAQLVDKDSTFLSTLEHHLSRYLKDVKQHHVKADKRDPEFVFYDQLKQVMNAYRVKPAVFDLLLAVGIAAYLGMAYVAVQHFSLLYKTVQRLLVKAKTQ
UniProt Q9BUV8: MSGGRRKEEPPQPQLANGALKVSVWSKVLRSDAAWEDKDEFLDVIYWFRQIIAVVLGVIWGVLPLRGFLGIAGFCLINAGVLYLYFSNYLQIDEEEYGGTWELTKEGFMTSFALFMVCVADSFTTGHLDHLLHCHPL
UniProt Q15155: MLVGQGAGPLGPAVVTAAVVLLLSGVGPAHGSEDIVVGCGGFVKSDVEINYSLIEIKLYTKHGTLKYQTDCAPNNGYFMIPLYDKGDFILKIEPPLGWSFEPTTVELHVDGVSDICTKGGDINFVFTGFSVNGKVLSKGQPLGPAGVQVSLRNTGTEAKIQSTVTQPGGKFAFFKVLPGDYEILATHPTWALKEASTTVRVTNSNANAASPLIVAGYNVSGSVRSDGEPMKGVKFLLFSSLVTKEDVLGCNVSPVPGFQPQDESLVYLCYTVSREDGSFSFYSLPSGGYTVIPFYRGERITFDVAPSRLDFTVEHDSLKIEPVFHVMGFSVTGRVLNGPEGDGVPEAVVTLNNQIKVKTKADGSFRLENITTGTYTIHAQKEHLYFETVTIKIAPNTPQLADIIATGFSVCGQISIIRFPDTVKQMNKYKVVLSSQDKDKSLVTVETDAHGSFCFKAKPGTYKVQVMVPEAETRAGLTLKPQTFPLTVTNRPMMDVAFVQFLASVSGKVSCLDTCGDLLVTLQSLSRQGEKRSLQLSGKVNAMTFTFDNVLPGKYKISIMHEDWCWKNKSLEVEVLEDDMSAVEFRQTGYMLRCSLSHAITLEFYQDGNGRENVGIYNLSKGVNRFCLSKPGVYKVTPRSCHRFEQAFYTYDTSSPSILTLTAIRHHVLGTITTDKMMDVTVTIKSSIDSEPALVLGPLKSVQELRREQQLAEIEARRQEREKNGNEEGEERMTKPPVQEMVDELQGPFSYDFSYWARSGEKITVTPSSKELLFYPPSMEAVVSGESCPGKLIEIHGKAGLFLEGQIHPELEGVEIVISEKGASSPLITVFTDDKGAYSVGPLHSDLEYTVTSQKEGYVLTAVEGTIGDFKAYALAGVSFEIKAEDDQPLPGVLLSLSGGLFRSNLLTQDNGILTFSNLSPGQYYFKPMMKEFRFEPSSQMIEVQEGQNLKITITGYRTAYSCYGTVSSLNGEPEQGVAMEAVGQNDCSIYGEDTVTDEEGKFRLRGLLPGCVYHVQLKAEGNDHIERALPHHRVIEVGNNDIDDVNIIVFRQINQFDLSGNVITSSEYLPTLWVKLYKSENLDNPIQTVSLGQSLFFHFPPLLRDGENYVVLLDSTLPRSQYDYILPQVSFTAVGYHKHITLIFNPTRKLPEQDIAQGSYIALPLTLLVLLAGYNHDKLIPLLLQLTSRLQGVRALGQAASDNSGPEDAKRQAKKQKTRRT

Key:
[1] = molecular target: N-terminally Flag-tagged TMCO1 (UniProt Q9UM00); experiment: co-IP; anti-Flag (M2 beads) immunoprecipitation from nuclease-treated, digitonin-solubilized HEK293 microsomes, overnight at 4 °C, Flag-peptide elution, eluate pelleted through a sucrose cushion; ribosome-bound fraction (pellet); immunoblot
[2] = molecular target: N-terminally Flag-tagged nicalin (UniProt Q969V3); experiment: as above
[3] = molecular target: T1, stalled, Flag-tagged YIPF1 construct truncated at position 277 (UniProt Q9Y548); experiment: co-IP; stalled N-terminally Flag-tagged nascent chains translated in RRL with HEK293 rough microsomes (wild type; in some panels ΔTN, ΔTC, ΔS or single knockouts), membranes nuclease-treated and digitonin-solubilized, anti-Flag immunoprecipitation, Flag-peptide elution, ribosome-nascent chain complexes pelleted through a sucrose cushion; immunoblot
T1 sequence: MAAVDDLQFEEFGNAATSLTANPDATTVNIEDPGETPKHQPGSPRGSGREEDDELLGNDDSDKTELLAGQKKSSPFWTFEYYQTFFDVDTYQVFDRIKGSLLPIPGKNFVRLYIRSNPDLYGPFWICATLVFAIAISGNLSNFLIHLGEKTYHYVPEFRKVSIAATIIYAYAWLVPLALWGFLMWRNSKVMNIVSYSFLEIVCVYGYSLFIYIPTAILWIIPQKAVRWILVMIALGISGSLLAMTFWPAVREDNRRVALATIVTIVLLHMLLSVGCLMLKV

[4] = molecular target: T2, stalled, Flag-tagged YIPF1 construct truncated at position 183 (UniProt Q9Y548); experiment: as above
T2 sequence: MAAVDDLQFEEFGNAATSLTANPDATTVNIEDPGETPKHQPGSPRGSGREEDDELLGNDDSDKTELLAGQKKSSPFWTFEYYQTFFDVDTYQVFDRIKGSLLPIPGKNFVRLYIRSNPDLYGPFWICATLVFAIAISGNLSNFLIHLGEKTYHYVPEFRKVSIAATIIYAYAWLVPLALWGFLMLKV

Substance: C20Orf24 (from UniProt Q9BUV8 1-137)
- binding [1]: binds

Substance: NOMO (from UniProt Q15155)
- binding [2]: binds
- binding [3]: binds
- binding [4]: no binding

Substance: TMCO1 (from UniProt Q9UM00)
- binding [3]: binds
- binding [4]: no binding

Results are given in words; binding and its absence hold for the method and conditions named. In cells and extracts the contact can be indirect. For part of these data: Binding can be weak; no strength is given. For part of these data: Sequences can lack the tags named with a protein.
